Binding data for 20 molecules are collected here from patent US20250043022A1.

By UniProt entry, the sequences of proteins in these tests, tags left out. Where a name states a change or a piece, a line headed by the entry shows the natural chain unless it says otherwise. Residues count along the entry.
UniProt Q04609: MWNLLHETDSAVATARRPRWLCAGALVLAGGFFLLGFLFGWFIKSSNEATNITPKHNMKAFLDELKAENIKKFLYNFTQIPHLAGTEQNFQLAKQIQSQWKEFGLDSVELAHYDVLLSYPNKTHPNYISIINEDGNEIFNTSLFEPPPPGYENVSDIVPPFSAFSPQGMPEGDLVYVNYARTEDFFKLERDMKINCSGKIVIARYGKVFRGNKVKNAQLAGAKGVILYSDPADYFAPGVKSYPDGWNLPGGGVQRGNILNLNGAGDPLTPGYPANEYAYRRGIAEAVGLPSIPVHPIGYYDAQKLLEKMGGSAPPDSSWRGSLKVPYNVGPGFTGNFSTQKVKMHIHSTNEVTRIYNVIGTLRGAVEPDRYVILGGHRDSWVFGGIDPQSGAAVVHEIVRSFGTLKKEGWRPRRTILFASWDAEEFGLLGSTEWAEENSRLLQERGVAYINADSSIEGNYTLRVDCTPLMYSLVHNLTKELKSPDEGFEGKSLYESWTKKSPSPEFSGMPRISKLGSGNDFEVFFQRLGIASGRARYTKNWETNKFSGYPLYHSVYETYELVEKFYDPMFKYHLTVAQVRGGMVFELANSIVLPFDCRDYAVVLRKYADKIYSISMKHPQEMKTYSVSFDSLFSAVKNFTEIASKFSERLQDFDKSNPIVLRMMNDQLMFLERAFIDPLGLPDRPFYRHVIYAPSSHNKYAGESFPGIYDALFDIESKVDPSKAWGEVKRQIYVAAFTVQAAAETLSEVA
human PSMA antigen (R&D SYSTEM, 4234-ZN-010): residues 44-750 of Q04609

These are yes or no findings as the source states them, for the method shown. Some binding calls cover weakened binding; strength is not graded here.

Test [1] addresses cynomolgus monkey PSMA on the cell surface (cynomolgus monkey). Put plainly: hybridoma screening on cells.
Test [2] has as its target human PSMA antigen (R&D SYSTEM, 4234-ZN-010) (human) (UniProt Q04609). The test can be described thus: ELISA. For orientation: In an ELISA, binding on a coated surface is turned into a signal by an enzyme label.
The target in test [3] is human PSMA on cells (Cho-hPSMA, CHO-K1 cells overexpressing full-length human PSMA) (human) (UniProt Q04609). The test can be described thus: hybridoma screening on cells.
For test [4] the target is unchanged. The test can be described thus: Cho-hPSMA cells.

B1: murine antibody 71 (antibody, V domains shown)
VH: QVQLVETGGGLVRPGNSLKLSCVTSGFTFSNYRMHWLRQPPGKRLEWIAVITVKSDNYGSSYAESVKGRFAISRDDSKSSVYLEMNRLREEDTATYFCSRELGQVLVFWGQGTLVTVSA
VL: DVVVTQTPLSLPVSLGDQASISCRSSQSLVHSYGNTYLHWYLQKPGQSPKLLIYKVSNRFSGVPDRFSGSGSGTDFTLKISRVEAEDLGVYFCSQTTHVPWTFGGGTKLEIK
Take B1: in test [1], the binding result is listed as “binds”.

B2: murine antibody 50 (antibody, V domains shown)
VH: QVQLQQSGAELARPGASVKLSCKASGFTFTNYGISWVKQRTGQGLEWIGEIYPRSGNTYYNTNFKGEATLTADKSSSTAFMELRSLTSEDSAVYFCARNPFTTVVEGFAFWGQGTLVTVSA
VL: DVFMTQSPLSLPVSLGDQASISCRSSQSILHSNGNTYLEWYLQKPGQSPKLLIYRVSNRFSGVPDRFSGSGSGTDFTLKISRVEAEDLGVYYCFQGLHVPPTFGAGTKLELK
With B2, the binding result in test [1] is listed as “binds”.

B3: murine antibody 2 (antibody, V domains shown)
VH: EVKLVESEGGLVQPGSSMKLSCTASGFTFSDYYMAWVRQVPEKGLEWVANINFDGSSTYYLDSLKSRFIISRDNAKNILYLQMSSLKSEDTATYYCARDLDGYYGYFDVWGTGTTVTVSS
VL: QIVLTQSPAIMSASPGEKVTISCSASSSVSHMYWYQQKPGSSPKPWIYRTSNLASGVPARFSGSGSGTSYSLTISSMEAEDAATYYCQQYHSYPLMFGAGTKLELK
As to B3, the binding entry in test [1] is “binds”.

B4: murine antibody 27 (antibody, V domains shown)
VH: EVKLVESEGGLVQPGSSMKLSCTASGFTFSDYYMAWVRQVPEKGLEWVANINYDGSSTYYLDSLKSRFIISRDNAKNILYLQMSSLKSEDTATYYCARDLDGYYGYFDVWGTGTTVTVSS
VL: QIVLTQSPAIMSASPGEKVTISCSASSSVSYMYWYQQKPGSSPKPWIYRTSNLASGVPARFSGSGSGTSYSLTISSMEAEDAATYYCQQYHSYPLTFGAGTKLELK
For the molecule B4, in test [1], the binding result is listed as “binds”.

B5: hu2H1L1 (antibody, human IgG1, kappa, V domains shown)
VH: EVQLVESGGGLVQPGGSLRLSCAASGFTFSDYYMAWVRQAPGKGLEWVANINFDGSSTYYLDSLKSRFTISRDNAKNSLYLQMNSLRAEDTAVYYCARDLDGYYGYFDVWGQGTTVTVSS
VL: EIVLTQSPDFQSVTPKEKVTITCSASSSVSHMYWYQQKPDQSPKLLIYRTSNLASGVPSRFSGSGSGTDFTLTINSLEAEDAATYYCQQYHSYPLMFGQGTKLEIKR
As for B5, the binding result in test [2] is recorded as “binds”.

B6: murine antibody 73 (antibody, V domains shown)
VH: QVQLQQSGPELVKPGASVKISCKASGYAFSTSWMNWVKERPGKGLEWIGRIYPGDGDTKYNGKFQGKATLTADKSSSTAYMKLSSLTSEDSAVYFCVRSIYYLYYFDYWGQGTTLTVSS
VL: DIQMTQPTSSLSASLGDRVTISCSTSQDIYNNLSWFQQKPDGTVRLLIYYTSSLHSGVPSRFSGSGSGTDYSLTISNLEPEDIATYYCQQYNNLPFTFGGGTNLEIR
Regarding B6, the binding result in test [1] was “binds”.

B7: chi73 (antibody, human IgG1, kappa, V domains shown)
VH: QVQLQQSGPELVKPGASVKISCKASGYAFSTSWMNWVKERPGKGLEWIGRIYPGDGDTKYNGKFQGKATLTADKSSSTAYMKLSSLTSEDSAVYFCVRSIYYLYYFDYWGQGTTLTVSS
VL: DIQMTQPTSSLSASLGDRVTISCSTSQDIYNNLSWFQQKPDGTVRLLIYYTSSLHSGVPSRFSGSGSGTDYSLTISNLEPEDIATYYCQQYNNLPFTFGGGTNLEIRR
With B7, in test [2], the binding result is given as “binds”.

B8: murine antibody 13 (antibody, V domains shown)
VH: QVQLKESGPGLVAPSQSLSITCTVSGFSLTNYAISWVRQPPGKGLEWLGVIWTGGGTHYNSALKSRLSISKDNSKSQVFLKMNSLQTDDTARYYCARKGNYYGSSLYYYAMNYWGQGTSVTVSS
VL: DIQMTQTTSSLSASLGDRVTISCRASQDISNYLNWYQQKPDGTVKLLIYYTSRLQSGVPSRFSGSGSGTDYSLSISNLEQEDIATYFCQQGDTLPYTFGGGTKLEI
For B8, the binding result in test [1] and in test [3] was “binds” in each case.

B9: Chi13 (antibody, human IgG1, kappa, V domains shown)
VH: QVQLKESGPGLVAPSQSLSITCTVSGFSLTNYAISWVRQPPGKGLEWLGVIWTGGGTHYNSALKSRLSISKDNSKSQVFLKMNSLQTDDTARYYCARKGNYYGSSLYYYAMNYWGQGTSVTVSS
VL: DIQMTQTTSSLSASLGDRVTISCRASQDISNYLNWYQQKPDGTVKLLIYYTSRLQSGVPSRFSGSGSGTDYSLSISNLEQEDIATYFCQQGDTLPYTFGGGTKLEIRT
B9: the binding entry in test [4] and in test [2] was “binds” in each case.

B10: murine antibody 15 (antibody, V domains shown)
VH: EFQLQQSGPELVKPGASVKISCKASGYSFTDHNMNWVKQSNGKSLEWIGLINPNYGTADYNQKFKGKATLTVDQSSTTAFMQFTSLTSEDSAVYYCARGSSLFAYWGQGTLVTVSA
VL: DIVMTQSHKFMSTSVGDRVNITCKASQGVDTAVAWYQQKPGQSPKLLIYWASTRHTGVPDRFTGSGSGTDFTLTISNVQSEDLADYFCQQYSRYPLTFGAGTKLELK
As for B10, the binding entry in test [1] was “binds”.

B11: hu41H2L2 (antibody, human IgG1, kappa, V domains shown)
VH: EVQLVQSGAEVKKPGASVKVSCKASGYTFTSYGISWVRQAPGQGLEWMGEIFPRRGNTYYNEKFRGRVTLTADKSTSTAYMELRSLRSDDTAVYYCARVFDGYYNYAMDYWGQGTTVTVSS
VL: DIQMTQSPSSLSASVGDRVTITCRASQDIGSSLNWLQQKPGKAIKRLIYATSSLDSGVPSRFSGSRSGTDYTLTISSLQPEDFATYYCLQYASSPYTFGGGTKVEIKR
For B11, in test [2], the binding result is given as “binds”.

B12: murine antibody 41 (antibody, V domains shown)
VH: QVQLQQSGAELARPGASVKLSCKASGYTFTSYGISWVKQRTGQGLEWIGEIFPRRGNTYYNEKFRGKATLTADKSSSAAYMELRSLTSEDSAVYFCARVFDGYYNYAMDYWGQGTSVTVSS
VL: DIQMTQSPSSLSASLGERVSLTCRASQDIGSSLNWLQQQPDGTIKRLIYATSSLDSGVPTRFSGSRSGSDYSLTISSLESEDFVDYYCLQYASSPYTFGGGTKLEIK
Consider B12, for which the binding entry in test [1] and in test [3] was “binds” throughout.

B13: hu46H2L2 (antibody, human IgG1, kappa, V domains shown)
VH: EVQLVESGGGLVKPGGSLRLSCAASGFTFSNYGMSWVRQAPGKGLEWVSTIGSGGGYTYYSDSVKGRFTISRDNAKNSLYLQMNSLRAEDTAVYYCVRHPQIGYWGQGTLVTVSS
VL: DIQMTQSPSSLSASVGDRVTITCKASQSVGTAVAWYQQKPGKAPKLLIYSASSRYTGVPSRFSGSGSGTDFTLTISSLQPEDFADYFCHQYSSYPLTFGGGTKVEIKR
Consider B13, for which the binding result in test [2] was “binds”.

B14: murine antibody 19 (antibody, V domains shown)
VH: EVKLVESEGGLVQPGSSMKLSCTASGFTFSDYYMAWVRQVPERGLEWVANINYDGSSTYYLDSLKSRFIISRDNAKNILYLQMSSLKSEDTATYYCARGGDYWDAMDYWGQGTSVTVSS
VL: DIQMTQTTSSLSASLGDRVTISCRASQDISKYLNWYQQKPDGTVKLLIYYTSSLHSGVPSRFSGSGSGTDYSLTISNLEQEDIATYFCQQGNRLPRTFGGGTKLEIK
Consider B14, for which the binding result in test [1] is reported as “binds”.

B15: hu15H4L2 (antibody, human IgG1, kappa, V domains shown)
VH: EFQLVQSGAEVKKPGASVKVSCKASGYSFTDHNMNWVRQAPGQRLEWMGLINPNYGTADYNQKFKGRVTLTVDQSATTAYMELSSLRSEDTAVYYCARGSSLFAYWGQGTLVTVSS
VL: DIQMTQSPSSLSASVGDRVTITCKASQGVDTAVAWYQQKPGKSPKLLIYWASTRHTGVPDRFSGSGSGTDFTLTISSLQPEDVATYYCQQYSRYPLTFGQGTKLEIKR
Regarding B15, the binding result in test [2] was “binds”.

B16: hu43H3L2 (antibody, human IgG1, kappa, V domains shown)
VH: EVQFVESGGGLVQPGGSLRLSCAASGFTFSNYWMNWLRQAPGKGLEWVAQVRLKSDNYATHYAESVKGRFTISREDAKNSAYLQMNSLRAEDTAVYYCSENYYGPAGPFDFWGQGTTVTVSS
VL: DIQMTQSPSSLSASVGDRVTITCKASQNVHTSVAWYQQKPGKSPKLLIYSASNRYSGVPSRFSGSGSGTDFTLTISSLQPEDVATYYCQQYSSYPLTFGQGTKLEIKR
Take B16: the binding entry in test [2] is reported as “binds”.

B17: murine antibody 43 (antibody, V domains shown)
VH: EVKFEESGGGLVQPGGSMKLSCVASGFTFSNYWMNWLRQSPEKGLEWVAQVRLKSDNYATHYAESVKGRFTISRDDSKSSAYLQMNNLRAEDTGIYYCSENYYGPAGPFDFWGQGTTLTVSS
VL: DIVMTQSQKFMSTTVGDRVSITCKASQNVHTSVAWYQQKPGQSPKLLIYSASNRYSGVPDRFTGSGSGTDFTLTINNMQSEDLADYFCQQYSSYPLTFGVGTKLELK
Take B17: the binding entry in test [1] was “binds”.

B18: murine antibody 46 (antibody, V domains shown)
VH: EVQLVESGGDLVKPGGSLKLSCAASGFTFSNYGMSWVRQTPDKRIKWVATIGSGGGYTYYSDSVKGRFTISRDNAKNTLYLQMSSLKSEDTAIYYCVRHPQIGYWGQGTLVTVSA
VL: DIVMTQSQKFMSTTVGDRVTITCKASQSVGTAVAWYQQKPGQSPKLLIYSASSRYTGVPDRFTGSGSGTDFTLTITNMQSEDLADYFCHQYSSYPLTFGGGTKLEIK
In the case of B18, in test [1], the binding entry is listed as “binds”.

B19: hu31H1L1 (antibody, human IgG1, kappa, V domains shown)
VH: EVQLVESGGGLVQPGGSLRLSCAASGFTFSDYYMAWVRQAPGKGLEWVASINYDGSSTYYLDSLKSRFTISRDNAKNSLYLQMNSLRAEDTAVYYCAGSDGYWAWFAYWGQGTLVTVSS
VL: DIQMTQSPSSLSASVGDRVTITCRASGNIHNYLAWYQQKPGKAPKLLIYNAETLADGVPSRFSGSGSGTDFTLTISSLQPEDFATYYCQHFWSTPPTFGGGTKVEIKR
On to B19, for which, in test [2], the binding result is on record as “binds”.

B20: murine antibody 31 (antibody, V domains shown)
VH: EVKLVESEGGLVQPGSSKKLSCTASGFTFSDYYMAWVRQVPEKGLEWVASINYDGSSTYYLDSLKSRFIISRDNAKNNLYLQMNSLKSEDTATYYCAGSDGYWAWFAYWGQGTLVTVSA
VL: DIQMTQSPASLSASVGEAVTITCRASGNIHNYLAWYQQKQGKSPQLLVYNAETLADGVPSRFSGSGSGTQFSLKINSLRPEDFGSYYCQHFWSTPPTFGGGTKLEIK
Consider B20, for which the binding result in test [1] is on record as “binds”.
